Measurements taken from ChEMBL document CHEMBL1138053, “Design, synthesis, and structure-activity relationships of thieno[2,3-b]pyridin-4-one derivatives as a novel class of potent, orally active, non-peptide luteinizing hormone-releasing hormone receptor antagonists” (J Med Chem, 2006).

Assay: Distribution coefficient, log D of the compound
Details: octanol/water

## CC(C)C(=O)Nc1ccc(-c2sc3c(c2CN(C)Cc2ccccc2)c(=O)c(C(=O)c2ccccc2)cn3Cc2c(F)cccc2F)cc1
  logD: 7.29
